From PMC9399059 come the findings set out here.

Protein sequences, listed by entry. Tags and fused reporters are not part of them. Residues count along the entry.
UniProt P97571: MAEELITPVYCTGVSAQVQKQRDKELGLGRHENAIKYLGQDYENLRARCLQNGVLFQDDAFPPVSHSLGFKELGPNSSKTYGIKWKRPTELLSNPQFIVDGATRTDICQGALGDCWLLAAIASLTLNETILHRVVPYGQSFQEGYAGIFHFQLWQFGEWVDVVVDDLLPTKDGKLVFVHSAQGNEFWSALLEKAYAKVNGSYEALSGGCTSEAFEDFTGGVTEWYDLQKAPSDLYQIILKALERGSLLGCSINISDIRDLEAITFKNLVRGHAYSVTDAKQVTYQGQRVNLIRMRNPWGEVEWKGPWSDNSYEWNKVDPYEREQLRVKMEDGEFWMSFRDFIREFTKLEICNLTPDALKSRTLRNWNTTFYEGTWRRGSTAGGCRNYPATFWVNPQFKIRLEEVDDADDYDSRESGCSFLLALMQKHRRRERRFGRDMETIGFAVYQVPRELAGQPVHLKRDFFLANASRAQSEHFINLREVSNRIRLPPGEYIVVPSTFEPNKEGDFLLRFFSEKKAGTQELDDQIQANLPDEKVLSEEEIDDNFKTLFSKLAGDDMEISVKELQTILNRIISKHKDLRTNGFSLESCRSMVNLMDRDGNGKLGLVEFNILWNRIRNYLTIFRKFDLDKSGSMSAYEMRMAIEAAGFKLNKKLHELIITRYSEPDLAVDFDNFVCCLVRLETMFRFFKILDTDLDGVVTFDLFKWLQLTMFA
UniProt P15999, residues 44-553: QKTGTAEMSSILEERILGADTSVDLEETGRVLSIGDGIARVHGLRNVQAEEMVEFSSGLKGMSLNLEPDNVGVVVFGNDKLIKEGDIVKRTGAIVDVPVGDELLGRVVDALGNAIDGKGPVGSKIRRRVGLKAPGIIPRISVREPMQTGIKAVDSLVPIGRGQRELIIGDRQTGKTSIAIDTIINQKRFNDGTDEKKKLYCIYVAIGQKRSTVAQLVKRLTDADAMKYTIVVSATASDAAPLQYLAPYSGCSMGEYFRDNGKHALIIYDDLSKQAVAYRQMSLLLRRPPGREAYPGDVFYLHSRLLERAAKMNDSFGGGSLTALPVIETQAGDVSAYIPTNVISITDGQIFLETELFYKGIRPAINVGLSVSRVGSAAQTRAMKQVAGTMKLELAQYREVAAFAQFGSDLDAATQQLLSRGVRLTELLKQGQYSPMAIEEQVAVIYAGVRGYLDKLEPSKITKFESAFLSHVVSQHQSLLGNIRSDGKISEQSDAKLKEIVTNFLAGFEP

These are yes or no findings as the source states them, for the method shown. In cells and extracts the contact can be indirect. A yes stands for co-enrichment or nearness to the bait. Other partners may have been found.

This assay deals with calpain-1 conjugated with Flag (Ad-CAPN1) (rat) (UniProt P97571). The assay is described as follows: affinity purification with mass spectrometry; anti-Flag (control anti-IgG) immunoprecipitation from NP40 lysates of Ad-CAPN1-infected NRCMs, with or without CVB3 infection; Protein A/G magnetic beads, overnight 4 °C; SDS-PAGE then mass spectrometry.

Turning to “ATP synthase-α (ATP5A1) (from UniProt P15999 44-553)”, the binding result was “binds”.
